Read-outs that look alike come from different tables or passages of the source. These are yes or no findings as the source states them, for the method shown. In cells and extracts the contact can be indirect. Some results given as binding are weak or reduced against the parent protein; the word gives no strength. For part of these data: Where a sequence is shown, tags or fusion partners need not be part of it.

The chains behind the UniProt entries cited, without tags or fusion partners. Where a name states a change or a piece, a line headed by the entry shows the natural chain unless it says otherwise. A line that says so, or that is headed by a name, gives the form on record, which may keep a tag or linker. Residues count along the entry.
UniProt P40763: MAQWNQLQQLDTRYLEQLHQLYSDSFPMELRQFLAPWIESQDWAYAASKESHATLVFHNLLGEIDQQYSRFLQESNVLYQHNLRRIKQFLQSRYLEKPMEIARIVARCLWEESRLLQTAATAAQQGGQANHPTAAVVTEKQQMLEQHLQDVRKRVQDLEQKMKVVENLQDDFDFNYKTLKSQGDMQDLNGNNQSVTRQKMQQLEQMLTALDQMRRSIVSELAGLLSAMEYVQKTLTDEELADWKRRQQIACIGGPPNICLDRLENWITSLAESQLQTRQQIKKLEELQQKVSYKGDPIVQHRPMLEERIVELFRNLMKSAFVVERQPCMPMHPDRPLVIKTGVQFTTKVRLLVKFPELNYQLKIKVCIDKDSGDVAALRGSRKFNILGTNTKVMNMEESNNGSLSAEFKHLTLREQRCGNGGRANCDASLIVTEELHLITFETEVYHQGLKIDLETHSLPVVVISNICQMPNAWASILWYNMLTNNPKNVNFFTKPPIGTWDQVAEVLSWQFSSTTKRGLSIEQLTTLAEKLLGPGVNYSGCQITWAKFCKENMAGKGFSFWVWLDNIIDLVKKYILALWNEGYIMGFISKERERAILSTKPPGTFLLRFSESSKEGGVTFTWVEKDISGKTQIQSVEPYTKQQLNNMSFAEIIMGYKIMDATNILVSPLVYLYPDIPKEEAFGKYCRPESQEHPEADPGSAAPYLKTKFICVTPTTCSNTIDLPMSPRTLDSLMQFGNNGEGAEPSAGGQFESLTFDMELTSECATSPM
Myc-tagged STAT3 C-terminal deletion mutant lacking the residues downstream of amino acid 280: residues 1-280 of P40763
UniProt Q8VIM5: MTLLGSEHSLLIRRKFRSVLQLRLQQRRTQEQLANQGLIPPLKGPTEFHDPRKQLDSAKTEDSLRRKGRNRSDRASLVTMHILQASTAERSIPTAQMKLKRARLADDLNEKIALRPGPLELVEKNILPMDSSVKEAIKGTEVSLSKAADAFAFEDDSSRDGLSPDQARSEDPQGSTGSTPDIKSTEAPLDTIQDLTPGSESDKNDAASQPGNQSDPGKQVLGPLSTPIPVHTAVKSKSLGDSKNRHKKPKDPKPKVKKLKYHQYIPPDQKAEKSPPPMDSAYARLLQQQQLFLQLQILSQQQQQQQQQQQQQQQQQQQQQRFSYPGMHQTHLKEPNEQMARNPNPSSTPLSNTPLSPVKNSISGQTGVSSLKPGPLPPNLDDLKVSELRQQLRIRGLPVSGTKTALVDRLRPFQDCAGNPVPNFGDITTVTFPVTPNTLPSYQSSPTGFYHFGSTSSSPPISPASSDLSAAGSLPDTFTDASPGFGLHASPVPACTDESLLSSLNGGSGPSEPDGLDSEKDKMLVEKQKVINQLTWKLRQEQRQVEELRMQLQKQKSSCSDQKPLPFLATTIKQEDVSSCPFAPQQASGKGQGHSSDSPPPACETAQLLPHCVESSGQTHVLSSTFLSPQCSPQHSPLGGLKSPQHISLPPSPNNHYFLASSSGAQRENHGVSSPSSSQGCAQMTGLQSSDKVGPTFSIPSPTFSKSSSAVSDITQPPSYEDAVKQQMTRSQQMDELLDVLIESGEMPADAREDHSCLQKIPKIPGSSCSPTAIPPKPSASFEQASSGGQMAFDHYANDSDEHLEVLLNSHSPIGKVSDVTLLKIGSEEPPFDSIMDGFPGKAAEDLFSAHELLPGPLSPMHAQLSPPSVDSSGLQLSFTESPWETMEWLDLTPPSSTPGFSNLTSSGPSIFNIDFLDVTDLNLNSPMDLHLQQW
Flag-tagged Myocardin deletion mutant lacking N-terminal residues up to amino acid 194: residues 195-935 of Q8VIM5
Flag-tagged Myocardin deletion mutant lacking the first 268 amino acids: residues 269-935 of Q8VIM5

Consider four molecules from publication doi:10.1101/2020.11.21.392902.

Assay in all cases: co-IP
Assay [1] has as its target Myc-tagged STAT3 C-terminal deletion mutant lacking the residues downstream of amino acid 280 (UniProt P40763).
Assay [2] concerns the target Flag-tagged Myocardin deletion mutant lacking the first 268 amino acids (UniProt Q8VIM5).
The target of assay [3] is Flag-Myocardin (full-length Myocardin with Flag tag, Flag-pCDNA3.1-Myocardin) (UniProt Q8VIM5).
Assay [4] has as its target Flag-tagged Myocardin deletion mutant lacking N-terminal residues up to amino acid 194 (UniProt Q8VIM5).
The target in assay [5] is Myc-Myocardin (UniProt Q8VIM5).
For assay [6], the target named is Myc-Myocardin (UniProt Q8VIM5). The source holds these as a separate data set.

As for “Flag-Myocardin (full-length Myocardin with Flag tag, Flag-pCDNA3.1-Myocardin) (from UniProt Q8VIM5 1-935)”, in assay [1], the binding result was “binds”.
With “Myc-STAT3 (full-length STAT3 with Myc tag, Myc-pCDNA3.1-STAT3) (from UniProt P40763 1-770)”, the binding result in assay [2] is “no binding”; in assay [3], “binds”; in assay [4], “binds”.
As for “STAT3 as over-expressed in the experiments of Fig. 6 (from UniProt P40763 1-770)”, the binding entry in assay [5] is recorded as “binds”.

B1: HA-SRF (protein, UniProt P11831 1-508)
chain: MLPTQAGAAAALGRGSALGGSLNRTPTGRPGGGGGTRGANGGRVPGNGAGLGPGRLEREAAAAAATTPAPTAGALYSGSEGDSESGEEEELGAERRGLKRSLSEMEIGMVVGGPEASAAATGGYGPVSGAVSGAKPGKKTRGRVKIKMEFIDNKLRRYTTFSKRKTGIMKKAYELSTLTGTQVLLLVASETGHVYTFATRKLQPMITSETGKALIQTCLNSPDSPPRSDPTTDQRMSATGFEETDLTYQVSESDSSGETKDTLKPAFTVTNLPGTTSTIQTAPSTSTTMQVSSGPSFPITNYLAPVSASVSPSAVSSANGTVLKSTGSGPVSSGGLMQLPTSFTLMPGGAVAQQVPVQAIQVHQAPQQASPSRDSSTDLTQTSSSGTVTLPATIMTSSVPTTVGGHMMYPSPHAVMYAPTSGLGDGSLTVLNAFSQAPSTMQVSHSQVQEPGGVPQVFLTASSGTVQIPVSAVQLHQMAVIGQQAGSSSNLTELQVVNLDTAHSTKSE
As for B1, the binding entry in assay [6] is recorded as “binds”.
